Data as given in PubChem BioAssay AID1224828 (NIAID, 2016)
The deposit covers about 17,000 reagents; this is a random part of them. Of all reagents, 762 (4.5%) were called active. 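Active calls include both raised and lowered p65 entry, mostly lowered; wells with fewer than 50 cells lack a z-score.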 Raw values are not corrected between plates.

Test: 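Find genes required for NF-kappaB p65 moving into the nucleus after LPS in mouse macrophages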 (primary screen)
System: mouse RAW264.7 G9 macrophage reporter cells (GFP-p65, Tnf promoter-mCherry)
Knock-down reagent: siRNA pool against mouse genes, 100 nM
Duration: 2 days siRNA transfection, then 40 min LPS before fixation
Challenge: LPS (Salmonella minnesota R595) at 10 ng/ml
Detection: 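Imaged p65 nuclear translocation ratio, normalised to the plate median, converted to robust z-scores and averaged across two replicates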
Direction: p65 translocation robust z-score: higher = more nuclear NF-kappaB p65 after LPS than the plate median; nuclear/cytoplasmic p65 ratio: higher = more nuclear NF-kappaB p65
Rule for the call: 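Active if robust z is above 3.3 (negative regulators) or below -1.56, the Tlr4 control median (positive regulators); activity score 50 or more; control wells not called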
Meaning of the calls: active = hit (p65 shift raised or lowered); inactive = no clear change

Tln1 scored nuclear/cytoplasmic p65 ratio, rep 1 = 1.38; nuclear/cytoplasmic p65 ratio, rep 2 = 1.18; low cell count flag fewer than 50 cells per well; well left out of scoring; inactive. After knock-down of Plcl2, the record shows nuclear/cytoplasmic p65 ratio, rep 1 = 1.55; nuclear/cytoplasmic p65 ratio, rep 2 = 1.29; low cell count flag fewer than 50 cells per well; well left out of scoring; inactive. Znrd2 showed p65 translocation robust z-score -1.69; nuclear/cytoplasmic p65 ratio, rep 1 = 1.26; nuclear/cytoplasmic p65 ratio, rep 2 = 1.36; low cell count flag enough cells to score; active. For Nherf1, the entry reads p65 translocation robust z-score 0.03; nuclear/cytoplasmic p65 ratio, rep 1 = 1.41; nuclear/cytoplasmic p65 ratio, rep 2 = 1.25; low cell count flag enough cells to score; inactive. Tnr gave p65 translocation robust z-score -0.75; nuclear/cytoplasmic p65 ratio, rep 1 = 1.5; nuclear/cytoplasmic p65 ratio, rep 2 = 1.33; low cell count flag enough cells to score; inactive. After knock-down of Casp4, the record shows p65 translocation robust z-score -1.05; nuclear/cytoplasmic p65 ratio, rep 1 = 1.39; nuclear/cytoplasmic p65 ratio, rep 2 = 1.52; low cell count flag enough cells to score; inactive.

Against V1rd19, the values are p65 translocation robust z-score 0.71; nuclear/cytoplasmic p65 ratio, rep 1 = 1.47; nuclear/cytoplasmic p65 ratio, rep 2 = 1.31; low cell count flag enough cells to score; inactive. Gabpb2 gave p65 translocation robust z-score -0.19; nuclear/cytoplasmic p65 ratio, rep 1 = 1.55; nuclear/cytoplasmic p65 ratio, rep 2 = 1.45; low cell count flag enough cells to score; inactive. For Erc1, the entry reads p65 translocation robust z-score -1.08; nuclear/cytoplasmic p65 ratio, rep 1 = 1.26; nuclear/cytoplasmic p65 ratio, rep 2 = 1.08; low cell count flag enough cells to score; inactive. Bckdk scored nuclear/cytoplasmic p65 ratio, rep 1 = 1.54; nuclear/cytoplasmic p65 ratio, rep 2 = 1.32; low cell count flag fewer than 50 cells per well; well left out of scoring; inactive. Dclre1b showed p65 translocation robust z-score -1.44; nuclear/cytoplasmic p65 ratio, rep 1 = 1.29; nuclear/cytoplasmic p65 ratio, rep 2 = 1.17; low cell count flag enough cells to score; inactive. After knock-down of Jakmip1, the screen gave p65 translocation robust z-score -1.71; nuclear/cytoplasmic p65 ratio, rep 1 = 1.13; nuclear/cytoplasmic p65 ratio, rep 2 = 1.24; low cell count flag enough cells to score; active.

Dedd scored p65 translocation robust z-score -0.57; nuclear/cytoplasmic p65 ratio, rep 1 = 1.38; nuclear/cytoplasmic p65 ratio, rep 2 = 1.32; low cell count flag enough cells to score; inactive. With knock-down of Itk the results were p65 translocation robust z-score -1.15; nuclear/cytoplasmic p65 ratio, rep 1 = 1.82; nuclear/cytoplasmic p65 ratio, rep 2 = 1.23; low cell count flag enough cells to score; inactive.
